These results are taken from paper PMC8880919.

In the test the target is T1, Taf5 (S. pombe) (UniProt O13282).
T1 sequence: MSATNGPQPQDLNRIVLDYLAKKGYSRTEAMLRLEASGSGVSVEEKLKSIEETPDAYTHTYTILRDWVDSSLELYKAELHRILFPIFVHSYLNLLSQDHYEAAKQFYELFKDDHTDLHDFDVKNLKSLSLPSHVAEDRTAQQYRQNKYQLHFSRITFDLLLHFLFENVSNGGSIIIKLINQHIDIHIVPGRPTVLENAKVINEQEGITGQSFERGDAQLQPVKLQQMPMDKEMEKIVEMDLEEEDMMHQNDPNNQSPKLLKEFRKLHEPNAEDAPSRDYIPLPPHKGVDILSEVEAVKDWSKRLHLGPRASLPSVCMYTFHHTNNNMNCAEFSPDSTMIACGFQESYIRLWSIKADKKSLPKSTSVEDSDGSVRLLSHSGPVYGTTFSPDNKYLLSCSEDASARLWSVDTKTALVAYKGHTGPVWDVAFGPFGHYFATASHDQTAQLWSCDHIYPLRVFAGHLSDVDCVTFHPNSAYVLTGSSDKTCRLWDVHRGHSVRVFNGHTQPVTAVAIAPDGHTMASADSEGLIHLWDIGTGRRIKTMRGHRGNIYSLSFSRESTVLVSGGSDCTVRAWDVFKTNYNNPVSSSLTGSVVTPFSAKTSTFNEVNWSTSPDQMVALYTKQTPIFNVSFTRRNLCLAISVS
Kind of test: co-IP; protein extracts of wild type S. pombe cells expressing chromosomally tagged proteins; 500 ug protein, IP with anti-MYC or anti-FLAG overnight at 4 C, protein A/G sepharose; lysis buffer PBS pH 7.0, 200 mM NaCl, 0.5 mM EGTA, 0.5 mM EDTA, 0.1% Triton X100; five washes at 220 mM NaCl; blots with anti-HA, anti-FLAG or anti-MYC.

No constants are given. Whether binding was seen depends on the method and setting. In cells and extracts the contact can be indirect. Some entries that bind do so weakly or less than the wild type.

B1: Gad8 (protein, UniProt Q9P7J8 1-569)
chain: MSWKLTKKLKETHLASAIGLNSGGSSFTRGLKNSTLSSTSSRKSSDEKSRKSSEDKRSPQSTVVQPGLLQVTIIEARNLKLPSGHVPANYGVSIDNSLLAPPLSNGSGHARSRSHAWWLPYIVVEFDKNEILVDALNTASLENPCWDYQATFDVSRYSKLSLNIYLRSSSSRSRNGMGNDAFLGGIKLSPSFIVNKLTDEWVPLHGGSGELRVQMLYKPNQSTPLTIDAFELLKVVGKGSFGKVMQVRKRDTSRIYALKTMKKAHIVSRSEVDHTLAERTVLAQVNNPFIVPLKFSFQSPGKLYLVLAFVNGGELFHHLQREGCFDTYRAKFYIAELLVALECLHEFNVIYRDLKPENILLDYTGHIALCDFGLCKLNMAKTDRTNTFCGTPEYLAPELLLGHGYTKVVDWWTLGVLLYEMITGLPPFYDENINEMYRKILQDPLRFPDNIDEKAKDLLSGLLTRAPEKRLGSGGAQEIKNHPFFDDIDWKKLCAKKIQPPFKPSVESAIDTSNFDSEFTSEIPMDSVVADSHLSETVQQRFANWSYQRPTTIDTSDDINTIAPGSVIR
For the molecule B1, the binding result is “binds”.
